# Source: patent US20220145406A1, “BIOMARKERS, AND USES IN TREATMENT OF VIRAL INFECTIONS, INFLAMMATIONS, OR CANCER” (ABIVAX, priority 2018, published 2022)
# At least one compound was matched to its structure with a doubt left.
# Tests used:
# CD4+ T cells [1] = test: RNAseq differential gene expression; assay type: cell-based, human; details: infected or uninfected, 4 donors, 6 days
# Excerpt: All statistical analyses and plots were done with R software v3.5. For normalization and processing, we used edgeR v3.22.1, EDASeq v2.14 and DESeq2 v1.20. We decided to use counts per million (CPM) over transcripts per million (TPM) mainly because TPM discards a lot of information about the original count sizes and thus would have produced too much noise for differential testing. The first step was to filter the data. We considered a gene to be expressed at a reasonable level in a sample if it had at least five counts for each million mapped reads in that sample. […]
# A full-detailed report describing the complete analysis was submitted to Gene Expression Omnibus (GEO, https://www.ncbi.nlm.nih.gov/geo/query/acc.cgi?acc=GSE116073). […] RNA concentrations were determined using Qubit[…] fluorometric quantification and purity by the RNA 6000 Bioanalyzer kit (Agilent). […] The final cDNA libraries were validated with a Fragment Analyzer (Advanced Analytical, Ankeny, Iowa) and quantified with a KAPA qPCR kit (Kapa Biosystems, Wilmington, Mass.). […] Cluster formation and primer hybridization and single-end read, 50-cycle sequencing were performed on the cBot and HiSeq 2500 (Illumina, San Diego, Calif.), respectively. […] The quality of the data was assessed using FastQC from the Babraham Institute and the Illumina software SAV (Sequence Analysis Viewer). […]
# [2] = test system: activated CD4+ T cells or PBMCs; test: FACS analysis of surface markers; assay type: cell-based, human; details: 7 donors, 6 days of ABX464 treatment
# HIV = test: Viral load and viral DNA in HIV patients treated with ABX464; assay type: in vivo; details: HIV patients treated with ABX464 (ABIVAX, data in file)
# miR-124 [3] = test: miR-124 quantification in rectal biopsies of HIV patients undergoing ART; assay type: in vivo, human
# miR-124 [4] = test: MicroRNA array analysis of small RNAs in PBMCs; assay type: cell-based, human; details: PBMCs of 6 donors, infected (YU-2) and uninfected
# miR-124 [5] = test: miR-124 (RT-q)PCR in PBMCs, CD4+ and CD8+ T cells, macrophages; assay type: cell-based, human
# Protocol: (§1) Buffy coats from HIV-negative individuals were obtained from the local blood donation center in Centre de transfusion sanguine Montpellier. Human peripheral blood mononuclear cells (PBMCs) were isolated by Ficoll (Histopaque, Sigma) gradient centrifugation. CD4+ and CD8+ T cells were purified from PBMCs after Ficoll gradient centrifugation by Human CD4+ beads positive selection and CD8+ beads positive selection, respectively (Miltenyi). PBMCs, CD4+ and CD8+ T cells were grown at 37° C. and 5% CO2 to a density of 1.5×10^6 cells/ml in RPMI GlutaMAX medium (Life Technologies) supplemented with 10% fetal calf serum (FCS) (Thermo Fisher), 40 U/ml of IL2 (PeproTech) and 5 μg/mL of PHA (Roche) for 2 days. Three days later, cells were resuspended at 1.5×10^6 cells/ml in RPMI supplemented with 10% FCS and 40 U/ml IL2 and separated into two parts (infected and uninfected cells). Cells were infected with 80 ng of p24/106 cells of the YU-2 strain for 4 to 6 hours and then rinsed with PBS before medium renewal.
# Both infected and uninfected cells were then centrifuged and resuspended to a density of 1.5×10^6 cells/ml in medium supplemented with diluted drug solubilized in DMSO (Sigma) to a final 0.05% DMSO concentration or antiretroviral compounds according to the manufacturer's instructions. Cells were treated for 6 days with a medium renewal at day 3. […]
# miRNAs were extracted from PBMCs, CD4+ or CD8+ T cells using the NucleoSpin miRNeasy kit (Macherey-Nagel) according to the manufacturer's instructions. miRNA reverse transcription (RT) was performed using the miScript II RT kit (Qiagen). […] The relative levels of miR-124 were calculated using the 2^−ΔΔCt method.
# Total RNA was extracted from macrophages using the Macherey-Nagel NucleoSpin miRNeasy kit. miRNA reverse transcription (RT) was performed on 2 μl of total RNA according to the Applied Biosystems TaqMan Advanced miRNA assays protocol for TaqMan qPCR. […] PCR runs were analyzed with Applied Biosystems ViiA 7 software.
# lncRNA 0599-205 = test: RNA CaptureSeq of lncRNA 0599-205 splicing in PBMCs; assay type: cell-based, human
# [6] = target: T1, cap binding complex (CBC) (Homo sapiens, UniProt P52298+Q09161); test: Binding to the cap binding complex; details: ABIVAX, data in file
# T1 sequence (Q09161 1-790): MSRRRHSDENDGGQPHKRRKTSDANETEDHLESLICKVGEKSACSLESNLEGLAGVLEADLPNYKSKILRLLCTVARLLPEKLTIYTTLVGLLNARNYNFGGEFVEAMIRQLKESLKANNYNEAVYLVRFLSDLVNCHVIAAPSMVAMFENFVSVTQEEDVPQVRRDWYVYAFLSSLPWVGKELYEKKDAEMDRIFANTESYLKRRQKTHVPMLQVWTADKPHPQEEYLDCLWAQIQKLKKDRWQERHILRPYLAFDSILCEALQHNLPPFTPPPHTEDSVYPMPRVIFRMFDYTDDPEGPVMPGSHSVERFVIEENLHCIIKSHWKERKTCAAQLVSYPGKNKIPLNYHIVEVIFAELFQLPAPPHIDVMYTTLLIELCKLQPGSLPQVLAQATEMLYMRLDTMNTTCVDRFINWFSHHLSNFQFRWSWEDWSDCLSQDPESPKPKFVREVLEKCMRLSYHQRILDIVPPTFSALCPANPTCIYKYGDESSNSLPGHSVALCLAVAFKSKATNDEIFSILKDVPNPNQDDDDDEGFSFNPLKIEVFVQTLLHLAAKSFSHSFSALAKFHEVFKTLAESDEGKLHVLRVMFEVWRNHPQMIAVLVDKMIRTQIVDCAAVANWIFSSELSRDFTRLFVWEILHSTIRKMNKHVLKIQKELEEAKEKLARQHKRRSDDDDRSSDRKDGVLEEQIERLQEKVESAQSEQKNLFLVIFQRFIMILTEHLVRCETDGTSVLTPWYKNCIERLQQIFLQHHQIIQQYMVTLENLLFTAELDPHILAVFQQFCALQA
# T1 sequence (P52298 1-156): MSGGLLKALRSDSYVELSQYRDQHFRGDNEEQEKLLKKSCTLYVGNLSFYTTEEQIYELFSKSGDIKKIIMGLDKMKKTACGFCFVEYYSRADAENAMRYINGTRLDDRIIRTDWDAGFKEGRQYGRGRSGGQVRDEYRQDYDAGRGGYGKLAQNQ
# CD4+ T cells [7] = test: RNAseq differential alternative splicing analysis (SUPPA) of cellular genes; assay type: cell-based, human
# Protocol: as §1
# Both infected and uninfected cells were then centrifuged and resuspended to a density of 1.5×10^6 cells/ml in medium supplemented with diluted drug solubilized in DMSO (Sigma) to a final 0.05% DMSO concentration or antiretroviral compounds according to the manufacturer's instructions. Cells were treated for 6 days with a medium renewal at day 3. HIV p24 titration was performed by ELISA from cell culture supernatants with Innotest kit (Ingen) according to the manufacturer's instructions.
# A full-detailed report describing the complete analysis was submitted to Gene Expression Omnibus (GEO, https://www.ncbi.nlm.nih.gov/geo/query/acc.cgi?acc=GSE116073). Total RNA extraction was performed according to the Qiagen miRNeasy □ kit. RNA concentrations were determined using Qubit[…] fluorometric quantification and purity by the RNA 6000 Bioanalyzer kit (Agilent). RNA-Seq libraries were constructed with the TruSeq stranded mRNA sample preparation (low-throughput protocol) kit from Illumina, according to the manufacturer's instructions. Aliquots of 1.2 μg of total RNA were used for the construction of the libraries. The final cDNA libraries were validated with a Fragment Analyzer (Advanced Analytical, Ankeny, Iowa) and quantified with a KAPA qPCR kit (Kapa Biosystems, Wilmington, Mass.). On the 8 sequencing lanes of a flow cell V4, the 32 libraries were pooled in equal proportions by sets of 4 libraries per lane, denatured with NaOH and diluted to […] before clustering. Cluster formation and primer hybridization and single-end read, 50-cycle sequencing were performed on the cBot and HiSeq 2500 (Illumina, San Diego, Calif.), respectively. Image analysis and base calling were performed using the HiSeq Control Software with the Real-Time Analysis component. Demultiplexing was performed using Illumina's sequencing analysis software. The quality of the data was assessed using FastQC from the Babraham Institute and the Illumina software SAV (Sequence Analysis Viewer). Potential contaminants were investigated with the FastQ Screen software from the Babraham Institute.
# To investigate splicing activity we used SUPPA v2.0.0, a tool developed in Python 3.4 and especially designed for this approach. To study splicing across multiple conditions, we performed three modular operations that were run separately. The first step was to generate events from the annotation file commonly named the GTF file (general […]). The second step was to quantify event inclusion levels (PSIs) from our samples. Finally, differential splicing across multiple conditions was calculated for all replicates.
# To generate the different alternative splicing events from an input annotation file (GTF format), the method reads transcript and gene information solely from the “exon” lines in the GTF. It then generates the events and outputs an ‘ioe’ file, which contains the relationship between each event and the transcripts that share this particular event. […]
# HeLa cells = test: miR-124 in HeLa cells transfected with pc-lncRNA-0599-205; assay type: cell-based, human; details: HeLa cells transfected with lncRNA 0599-205 plasmid
# [8] = test system: DSS-model for inflammatory bowel disease (IBD); details: cited from earlier work
# ulcerative colitis = details: cited from earlier work
# miR-124 [9] = test: TaqMan Low Density Array (TLDA) miRNA profiling; assay type: cell-based, human; details: PBMCs from 6 donors
# [10] = ABX464_NI_VS_DMSO_NI, uninfected CD4 T cells
compound,measurement,setting,value
"FC(F)(F)Oc1ccc(Nc2ccc3cccc(Cl)c3n2)cc1 [ABX464, 8-chloro-N-(4-(trifluoromethoxy)phenyl)quinolin-2-amine]",global CD4+ T cell gene expression (MDS),CD4+ T cells [1],did not induce a major difference in CD4+ T cell gene expression
same,changes in CCR6CXCR3 or CD45CCR7 subpopulation,[2],did not reveal any changes
same,viral DNA levels in HIV patients,HIV,reduced viral DNA levels
same,viral loads in HIV patients,HIV,diminished viral loads
same,miR-124 expression in rectal biopsies after stopping treatment,miR-124 [3]; ABX464 treatment stopped for 28 days,decreased to reach the level seen before treatment
same,miR-124 expression in rectal biopsies,"miR-124 [3]; HIV-infected patients undergoing ART (N=9), ABX464 for 28 days, healthy donors N=10",restored the expression of miR-124 to the level of healthy donors
same,differential expression of miRNAs and snoRNAs (microarray),miR-124 [4],"reproducible upregulation of a single microRNA, miR-124"
same,miR-124 expression (quantitative PCR),miR-124 [5]; infected and uninfected PBMCs of 5 donors,significant upregulation of miR-124
same,miR-124 expression,miR-124 [5]; monocyte-derived macrophages,undetectable
same,miR-124 expression,miR-124 [5]; purified CD4+ and CD8 T cells (lymphoid cells),upregulation of miR-124 in lymphoid cells
same,splicing of lncRNA 0599-205,"lncRNA 0599-205; PBMCs, not present in untreated samples",activated by ABX464
same,level of unspliced vs spliced lncRNA 0599-205,lncRNA 0599-205; after 8 days of treatment with ABX464,nine times higher
same,binding to CBC,[6],binds CBC
same,"differential splicing Event type, gene AL139035.1",CD4+ T cells [7]; [10],Alt
same,"differential splicing Event type, gene COX6C",CD4+ T cells [7]; [10],Alt
same,"differential splicing Event type, gene EGLN2",CD4+ T cells [7]; [10],Alt
same,"differential splicing Event type, gene GEM",CD4+ T cells [7]; [10],Alt
same,"differential splicing Event type, gene HCG20",CD4+ T cells [7]; [10],Alt
same,"differential splicing Event type, gene MRPL52",CD4+ T cells [7]; [10],A5; Alt
same,"differential splicing Event type, gene RHBDD2",CD4+ T cells [7]; [10],Alt
same,"differential splicing Event type, gene STMND1",CD4+ T cells [7]; [10],Alt
same,splicing events in B2M (exon coverage reads),"CD4+ T cells [7]; ABX464 vs DMSO, 4 donors",did not increase splicing events in B2M
same,switch-like splicing events (psi-score difference 1 or −1),CD4+ T cells [7]; infected or uninfected CD4+ T cells vs ABX464-treated samples,No switch-like events were detected
same,upregulation of miR-124 in response to ABX464,HeLa cells,failed to detect an upregulation of miR-124
same,"expression of IL-6, TNF-α and MCP-1",[8]; DSS-induced mouse colitis,reduced the expression of these proinflammatory cytokines
same,anti-inflammatory effects,[8]; DSS-model for IBD,strong anti-inflammatory effects
same,efficacy signal in ulcerative colitis patients,ulcerative colitis; patients treated with ABX464,robust and consistent efficacy signal
same,miR-124 in ulcerative colitis patients,ulcerative colitis; patients treated with ABX464,elevation of miR-124
same,safety and efficacy,ulcerative colitis; phase 2a proof-of-concept clinical trial,demonstrated safety and efficacy
same,miRNAs upregulated (TLDA),miR-124 [9],only miR-124 was observed to be upregulated
